Experimental data as given in PubChem BioAssay AID1487 (National Center for Advancing Translational Sciences (NCATS), 2009).
This is one part of the list. Further columns of the screen follow, without active or inactive calls. Compounds called inactive in the main read-out are mostly missing here. The note in brackets gives the kind of curve behind each potency; many fits are weak.

Experiment: qHTS Assay for Modulators of Lamin A Splicing
Details: HeLa LMNA splicing GFP/RFP minigene ratio, 48 h
Outline: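 Read-out is the ratio of GFP to DsRed2 object intensity, acquired by 488 nm laser-scanning cytometry on HeLa lamin A-EGFP minigene reporter cells. Compound incubation 48 hrs at 37 °C in Opti-MEM with 2% FBS; DMSO 0.5% final.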

[1] = measured here: RFP viability control channel
[2] = measured here: GFP splicing reporter channel

Structure (SMILES) | AC50 [1] | AC50 [2]
Cc1cc(=O)c2cc(Br)ccc2[nH]1 | 35.5 µM [rising, single point] | –
CCCCc1nnc(SCc2ccc(OCC)cc2)n1N | 0.141 µM [rising, full curve, poor fit] | –
CN(C)S(=O)(=O)c1cccc(NC(=O)COC(=O)c2cc(=O)c3ccccc3o2)c1 | 11.2 µM [falling, partial curve] | –
CC(=O)c1cccc(NC(=O)C2CCN(c3ncnc4c3nc3n4CCCCC3)CC2)c1 | 25.1 µM [rising, single point] | –
Fc1ccccc1/C=N/NC(=S)Nc1ccc(Cl)cc1Cl | 5.62 µM [rising, partial curve] | 2.24 µM [rising, partial curve, poor fit]
O=C(NC1CCCCC1)C(c1ccncc1)N(Cc1ccccc1)C(=O)c1ccc(-c2ccccc2)[nH]1 (stereo not given) | 0.0316 µM [falling, single point] | 14.1 µM [falling, single point]
COc1cc(-c2nnc(Sc3ccc(C(F)(F)F)cc3[N+](=O)[O-])o2)cc(OC)c1OC | 11.2 µM [rising, partial curve] | –
Clc1ccc(CN2CCN(c3ncnc4sc5c(c34)CCCC5)CC2)cc1Cl | 35.5 µM [rising, single point] | –
COc1ccc(NC(=O)CCC2CCCCC2)cc1S(=O)(=O)N1CCCCC1 | 10 µM [rising, partial curve] | –
CCn1c(CN2CCN(c3ccc(Cl)cc3)CC2)nc2ccccc21 | 14.1 µM [rising, single point] | –
O=C(COc1ccc(Cl)cc1Cl)NCc1ccco1 | – | 17.8 µM [rising, single point]
CCNc1ccc(S(=O)(=O)N(C)C)cc1NCC(=O)Nc1ccc(Br)cc1F | 8.91 µM [rising, partial curve] | –
Cc1cccc(/C=C/c2nc3ccccc3c(=O)[nH]2)c1 | 3.98 µM [rising, single point] | –
CC(C)=CCSc1nnc([C@@H](NC(=O)OC(C)(C)C)C(C)C)o1 | 14.1 µM [rising, partial curve] | 14.1 µM [rising, partial curve, poor fit]
C/C=C(/C(=C/C)c1ccc(O)cc1)c1ccc(O)cc1 | 2 µM [rising, full curve, poor fit] | 5.01 µM [rising, partial curve, poor fit]
COc1ccc(C2c3[nH]c4ccccc4c3CCN2C(=O)CCC2CCCC2)cc1 (stereo not given) | 20 µM [rising, single point] | 4.47 µM [falling, full curve, poor fit]
CCN(CC)C(=O)c1sc2c(c1C)c(=O)n(-c1ccc(C)c(C)c1)c(=O)n2Cc1cc(=O)n2ccccc2n1 | 35.5 µM [falling, partial curve, poor fit] | –
CC1Cc2ccccc2N1C(=O)c1nn(C)cc1Br (stereo not given) | 25.1 µM [rising, single point] | –
CC(Cc1cccs1)NC(=S)Nc1ccc(F)cc1 (stereo not given) | 12.6 µM [rising, partial curve, poor fit] | 15.8 µM [rising, partial curve, poor fit]
COC(=O)[C@@]1(Cc2ccc(F)cc2)[C@H]2c3cc(C(=O)N(C)C)n(CCc4ccc(OC)c(Br)c4)c3C[C@H]2CN1C(=O)c1ccccc1 | 20 µM [rising, partial curve, poor fit] | 8.91 µM [rising, partial curve, poor fit]
Cc1ccc2sc(N(Cc3cccnc3)C(=O)CCS(=O)(=O)c3ccccc3)nc2c1C | 10 µM [falling, partial curve] | 4.47 µM [falling, full curve]
COc1ccc2oc3cc(C)[n+]([O-])c(-c4ccc(C)cc4)c3c2c1 | 35.5 µM [rising, single point] | –
CCN(CC)c1ccc2cc(S(=O)(=O)c3ccc(Cl)cc3)c(=O)oc2c1 | 17.8 µM [rising, partial curve] | 8.91 µM [rising, partial curve, poor fit]
O=C1NCC(c2ccccc2)C1C(=O)N/N=C\c1ccc(-c2cccc(Cl)c2Cl)o1 (stereo not given) | 15.8 µM [rising, single point] | 35.5 µM [rising, single point]
O=c1nc(-c2ccccc2)cn[nH]1 | – | 7.08 µM [rising, full curve, poor fit]
CCC(Sc1nc2c(sc3ccccc32)c(=O)n1CCc1ccc(OC)c(OC)c1)C(=O)N(CC)CC (stereo not given) | 17.8 µM [rising, single point] | 22.4 µM [rising, single point]
CCn1ncc(/C=C/C(=O)Nc2c(C)nn(Cc3ccc(Cl)cc3Cl)c2C)c1C | 20 µM [falling, single point] | 35.5 µM [falling, single point]

Retrieved by structure from the entries so far (5):
Structure (SMILES) | AC50 [1] | AC50 [2]
Clc1ccc(CN2CCN(c3ncnc4sc5c(c34)CCCC5)CC2)cc1Cl | 35.5 µM [rising, single point] | –
CC(C)=CCSc1nnc([C@@H](NC(=O)OC(C)(C)C)C(C)C)o1 | 14.1 µM [rising, partial curve] | 14.1 µM [rising, partial curve, poor fit]
CC(=O)c1cccc(NC(=O)C2CCN(c3ncnc4c3nc3n4CCCCC3)CC2)c1 | 25.1 µM [rising, single point] | –
CCNc1ccc(S(=O)(=O)N(C)C)cc1NCC(=O)Nc1ccc(Br)cc1F | 8.91 µM [rising, partial curve] | –
COc1ccc(NC(=O)CCC2CCCCC2)cc1S(=O)(=O)N1CCCCC1 | 10 µM [rising, partial curve] | –

(further entries)

Structure (SMILES) | AC50 [1] | AC50 [2]
Cc1ccc(C(C)C)c(OCc2ccc(C(=O)N/N=C/c3cccc(O)c3O)cc2)c1 | 15.8 µM [rising, partial curve] | 10 µM [rising, partial curve]
NC(=O)C1CCN(CCC(=O)Nc2ccc(Br)cc2)CC1 | 5.62 µM [rising, single point] | –
CCC(C(=O)NC(C)CCc1ccccc1)n1nc(C)n2c(cc3occc32)c1=O (stereo not given) | 22.4 µM [rising, single point] | 12.6 µM [rising, partial curve, poor fit]
C=CCn1c(SCC(=O)Nc2sccc2C(N)=O)nc2ccc(Cl)cc2c1=O | 7.08 µM [rising, full curve, poor fit] | –
O=C(Nc1ccc(-c2nc3ccccc3o2)cc1)c1cccnc1 | – | 2 µM [rising, partial curve]
CN(C)CCCN(C(=O)CCOc1ccccc1)c1nc2ccc(F)cc2s1 | 3.16 µM [falling, single point] | –
COc1ccccc1C1C2=C(N=C3SCC(=O)N31)c1ccccc1CC2 (stereo not given) | – | 22.4 µM [rising, single point]
COC(=O)c1ccc(-c2nc(O)c(C)s2)cc1 | 0.112 µM [rising, full curve] | –
Cc1c(C(=O)N/N=C/c2cccnc2)sc(=S)n1C | 3.55 µM [rising, full curve, poor fit] | –
Cc1ccc(O)c(N=Cc2sc3ccccc3c2Cl)c1 | 15.8 µM [rising, partial curve] | –
CC1(C(=O)Nc2cccc(C(F)(F)F)c2)CO1 (stereo not given) | 0.282 µM [rising, full curve, poor fit] | 0.00282 µM [rising, full curve, poor fit]
NCC[C@H](O)C(=O)N[C@H]1C[C@@H](N)[C@@H](O[C@H]2O[C@@H](CN)[C@@H](O)[C@@H](O)[C@@H]2O)[C@@H](O)[C@@H]1O[C@H]1O[C@@H](CO)[C@@H](O)[C@@H](N)[C@@H]1O | 0.398 µM [falling, full curve] | 0.398 µM [falling, full curve]
NNC(=O)CS(=O)(=O)CS(=O)(=O)CC(=O)NN | 0.398 µM [falling, partial curve, poor fit] | 22.4 µM [falling, partial curve, poor fit]
C[N+](C)(C)CC(O)CC(=O)O (stereo not given) | – | 0.708 µM [rising, partial curve]
CC1=C(C(=O)c2ccccc2)C(c2cccc([N+](=O)[O-])c2)NC(=S)N1 (stereo not given) | 1.78 µM [rising, partial curve] | –
O=[N+]([O-])c1cc(/C=N/n2cnnc2)ccc1N1CCCC1 | 3.16 µM [falling, full curve] | 5.01 µM [falling, single point]
Cc1cccc(N2C(=O)C(Oc3ccc(Cl)cc3Cl)C2C=O)c1C (stereo not given) | 22.4 µM [falling, single point] | 6.31 µM [rising, single point]
COc1ccc(CC(=O)N2CCN=C2SC)cc1OC | 0.158 µM [rising, full curve, poor fit] | 0.158 µM [rising, full curve]
Cc1cc(NC(=O)CSCc2ccccc2C)no1 | – | 0.141 µM [rising, partial curve, poor fit]
CC(=O)c1ccc2noc(-c3cccc(C)c3)c2c1 | – | 2.24 µM [falling, single point]
Cc1noc(C)c1-c1ccc2ncnc(NC3CCNCC3)c2c1 | – | 12.6 µM [falling, partial curve]
COc1ccc(C(=O)Nc2cccc(C(=O)OCc3cc(=O)n4nc(C5CC5)sc4n3)c2)cc1 | – | 6.31 µM [falling, full curve]
CS(=O)(=O)N1CCN(c2ccc([N+](=O)[O-])c(NCc3ccc(Cl)cc3)c2)CC1 | 35.5 µM [falling, single point] | –
O=C(Nc1ccccc1)/C(=C/c1cccnc1)NC(=O)c1ccco1 | 7.94 µM [rising, partial curve, poor fit] | –
O=C(Nc1ccccn1)c1ccc(COc2ccccc2Cl)o1 | 12.6 µM [rising, partial curve, poor fit] | –
Cc1ccc(S(=O)(=O)Nc2ccc(N(C)S(=O)(=O)c3ccc(C)cc3)cc2)cc1 | 35.5 µM [rising, single point] | 15.8 µM [rising, partial curve, poor fit]
Cc1ccc2cc(C)c(N3CCN(c4ccccn4)CC3)nc2c1 | 31.6 µM [rising, single point] | –
